Laboratory results from paper PMC7005700.
No constants are given. Whether binding was seen depends on the method and setting. Binding seen in cells or lysates may run through a third protein. A yes stands for co-enrichment or nearness to the bait. Other partners may have been found.

Protein sequences, listed by entry. Tags and fused reporters are not part of them. Lines headed by an entry give the natural chain unless they say otherwise; changes in a name come on top. Chains listed by the source or under a name are the forms on record and can include a tag or linker.
UniProt P22415: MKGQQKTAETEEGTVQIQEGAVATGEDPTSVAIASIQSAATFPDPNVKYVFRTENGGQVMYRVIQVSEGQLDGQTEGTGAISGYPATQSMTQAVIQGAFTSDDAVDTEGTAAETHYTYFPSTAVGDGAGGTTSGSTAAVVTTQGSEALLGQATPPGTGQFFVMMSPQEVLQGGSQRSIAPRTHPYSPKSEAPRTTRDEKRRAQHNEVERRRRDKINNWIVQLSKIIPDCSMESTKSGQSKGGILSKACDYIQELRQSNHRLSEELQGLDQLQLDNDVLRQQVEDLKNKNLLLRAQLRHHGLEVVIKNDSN
Jmjd1c, endogenous in mouse liver (Q69ZK6, form named): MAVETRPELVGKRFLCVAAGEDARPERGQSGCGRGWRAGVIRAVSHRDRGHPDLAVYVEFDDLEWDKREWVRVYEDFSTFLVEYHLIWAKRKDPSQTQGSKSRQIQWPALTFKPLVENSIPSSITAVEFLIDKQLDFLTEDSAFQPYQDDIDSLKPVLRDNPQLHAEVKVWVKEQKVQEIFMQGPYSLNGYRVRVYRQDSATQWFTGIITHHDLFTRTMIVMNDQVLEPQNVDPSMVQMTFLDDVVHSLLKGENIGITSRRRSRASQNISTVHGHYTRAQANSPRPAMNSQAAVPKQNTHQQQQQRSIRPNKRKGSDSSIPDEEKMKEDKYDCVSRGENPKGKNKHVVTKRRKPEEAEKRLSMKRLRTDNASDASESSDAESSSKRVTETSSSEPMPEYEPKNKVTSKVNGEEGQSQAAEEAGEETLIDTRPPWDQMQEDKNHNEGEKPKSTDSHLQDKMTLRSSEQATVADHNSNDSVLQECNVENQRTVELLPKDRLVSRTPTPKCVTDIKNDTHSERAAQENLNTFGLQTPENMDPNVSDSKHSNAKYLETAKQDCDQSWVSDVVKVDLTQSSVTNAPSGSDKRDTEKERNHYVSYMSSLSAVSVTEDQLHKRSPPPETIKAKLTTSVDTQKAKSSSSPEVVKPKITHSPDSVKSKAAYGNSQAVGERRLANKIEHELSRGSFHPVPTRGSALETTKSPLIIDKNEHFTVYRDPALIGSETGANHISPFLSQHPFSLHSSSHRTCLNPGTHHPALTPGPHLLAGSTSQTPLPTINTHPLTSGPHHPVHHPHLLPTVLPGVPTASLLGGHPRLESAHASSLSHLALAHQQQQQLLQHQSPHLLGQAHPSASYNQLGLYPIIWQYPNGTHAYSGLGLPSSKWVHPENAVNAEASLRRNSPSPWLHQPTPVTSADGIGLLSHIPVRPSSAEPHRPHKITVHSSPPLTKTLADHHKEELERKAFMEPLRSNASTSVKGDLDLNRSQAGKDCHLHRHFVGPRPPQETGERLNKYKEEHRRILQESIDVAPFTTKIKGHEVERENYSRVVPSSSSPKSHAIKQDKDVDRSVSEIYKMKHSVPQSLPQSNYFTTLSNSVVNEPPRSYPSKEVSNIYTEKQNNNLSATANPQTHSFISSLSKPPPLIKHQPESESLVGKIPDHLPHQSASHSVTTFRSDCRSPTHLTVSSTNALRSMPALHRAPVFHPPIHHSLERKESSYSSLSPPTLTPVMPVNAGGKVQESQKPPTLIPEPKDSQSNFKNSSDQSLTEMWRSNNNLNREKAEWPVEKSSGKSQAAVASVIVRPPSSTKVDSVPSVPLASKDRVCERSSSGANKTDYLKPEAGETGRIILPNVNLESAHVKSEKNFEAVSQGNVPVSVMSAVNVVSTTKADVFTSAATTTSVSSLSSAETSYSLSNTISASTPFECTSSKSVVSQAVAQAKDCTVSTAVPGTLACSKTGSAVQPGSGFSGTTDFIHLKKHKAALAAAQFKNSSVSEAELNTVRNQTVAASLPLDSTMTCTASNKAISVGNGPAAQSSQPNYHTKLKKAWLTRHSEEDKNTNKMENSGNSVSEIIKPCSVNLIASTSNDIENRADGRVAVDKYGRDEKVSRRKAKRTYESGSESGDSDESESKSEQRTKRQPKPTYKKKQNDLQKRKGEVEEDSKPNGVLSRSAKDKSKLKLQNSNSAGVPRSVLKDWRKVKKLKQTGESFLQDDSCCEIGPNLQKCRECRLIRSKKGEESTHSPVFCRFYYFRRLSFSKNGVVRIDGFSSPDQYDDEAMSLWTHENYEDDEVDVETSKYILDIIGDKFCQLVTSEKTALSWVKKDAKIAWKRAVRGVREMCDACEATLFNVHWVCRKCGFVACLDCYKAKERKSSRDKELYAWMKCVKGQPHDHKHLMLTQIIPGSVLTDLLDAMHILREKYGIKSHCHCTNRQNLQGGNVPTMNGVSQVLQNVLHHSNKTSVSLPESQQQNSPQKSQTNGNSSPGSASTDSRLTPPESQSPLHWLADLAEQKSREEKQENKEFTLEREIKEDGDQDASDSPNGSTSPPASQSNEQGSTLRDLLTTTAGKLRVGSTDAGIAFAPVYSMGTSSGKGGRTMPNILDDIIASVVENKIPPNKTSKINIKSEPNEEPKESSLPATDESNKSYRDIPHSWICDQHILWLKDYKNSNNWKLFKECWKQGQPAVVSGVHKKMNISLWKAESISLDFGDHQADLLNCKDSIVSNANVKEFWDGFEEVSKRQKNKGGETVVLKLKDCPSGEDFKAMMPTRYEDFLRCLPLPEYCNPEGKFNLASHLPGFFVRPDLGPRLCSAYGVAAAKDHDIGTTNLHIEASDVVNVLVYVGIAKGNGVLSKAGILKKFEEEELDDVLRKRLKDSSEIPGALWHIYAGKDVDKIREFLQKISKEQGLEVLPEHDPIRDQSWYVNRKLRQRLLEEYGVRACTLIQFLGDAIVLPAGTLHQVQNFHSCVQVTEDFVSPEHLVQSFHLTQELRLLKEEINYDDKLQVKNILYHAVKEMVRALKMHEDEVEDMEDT

Biological target: TAP-tagged USF-1 (UniProt P22415)
Experiment: affinity purification with mass spectrometry; tandem affinity purification with TAP-tagged USF-1 as bait, incubated with liver nuclear extracts, then mass spectrometry

Substance: Jmjd1c, endogenous in mouse liver (from UniProt Q69ZK6 1-2531)
- binding: binds
